As a reminder, the IC50 is the concentration needed to halve the response being measured. Read a high IC50 as weaker potency in that assay.

SMILES strings stand for the structures. “And” between values parts separate entries of the source, which are not always exact repeats. Equal entries are not always repeated. Structures can show the parent of a compound that is named as a salt.

For one molecule, IC50 results are on record in patent publication US11065294B2, “Composition including oriental medicine to treat neoplastic disease” (COMPREHENSIVE AND INTEGRATIVE MEDICINE INSTITUTE, priority 2013, dated 2021).

This assay has as its system MCF-7 cells. The experiment in a line: MCF-7 cell viability (cytotoxicity). The note with it: Homo sapiens, MCF7. It is filed as cell-based.

Turning to `CC/C(=C(\c1ccccc1)c1ccc(OCCN(C)C)cc1)c1ccccc1` [Tamoxifen, Tamoxifen citrate], the IC50 is 1.88 µM and 0.69 µg/mL.
